Assay results published in US20100316569A1.
Results are given in words; binding and its absence hold for the method and conditions named. Some entries that bind do so weakly or less than the wild type. Blank lines part the entries; values can stand above or below the binder they belong to.

Legend:
[1] = target: T1, VAP-1 expressed on CHO cells (CHO-VAP-1) (human) (UniProt Q16853); assay: cell-cell adhesion with sialidase-treated cells, fluorometer
T1 sequence (looked up): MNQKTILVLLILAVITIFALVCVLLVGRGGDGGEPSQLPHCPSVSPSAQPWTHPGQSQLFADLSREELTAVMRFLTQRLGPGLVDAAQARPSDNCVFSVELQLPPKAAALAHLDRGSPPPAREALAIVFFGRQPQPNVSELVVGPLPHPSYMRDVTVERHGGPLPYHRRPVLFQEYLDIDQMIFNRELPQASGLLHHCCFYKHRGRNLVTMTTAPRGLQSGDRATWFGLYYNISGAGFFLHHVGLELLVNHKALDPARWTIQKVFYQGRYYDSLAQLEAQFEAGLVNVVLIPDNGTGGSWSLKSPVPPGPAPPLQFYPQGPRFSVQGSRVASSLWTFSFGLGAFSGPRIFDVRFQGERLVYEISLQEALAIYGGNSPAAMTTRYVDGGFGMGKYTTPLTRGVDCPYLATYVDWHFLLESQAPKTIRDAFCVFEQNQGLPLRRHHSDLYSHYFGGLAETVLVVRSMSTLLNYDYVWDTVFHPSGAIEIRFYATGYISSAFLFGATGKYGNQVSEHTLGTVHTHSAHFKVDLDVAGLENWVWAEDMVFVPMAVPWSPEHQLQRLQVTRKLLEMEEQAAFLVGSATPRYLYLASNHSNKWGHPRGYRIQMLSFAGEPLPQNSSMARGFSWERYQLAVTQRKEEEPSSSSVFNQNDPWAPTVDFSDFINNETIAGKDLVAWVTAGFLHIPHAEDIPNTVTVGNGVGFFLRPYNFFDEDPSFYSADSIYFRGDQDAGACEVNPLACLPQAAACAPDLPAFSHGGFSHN

[2] = target: T1, VAP-1 expressed on CHO cells (CHO-VAP-1) (human); assay: cell-cell adhesion, CFSE-labeled CHO-Siglec-10 cells on CHO-VAP-1 monolayers, fluorometer
[3] = target: T1, VAP-1 expressed on CHO cells (CHO-VAP-1) (human); assay: flow cytometry, competitive staining of CHO-VAP-1 cells

binding [1]: binds
binding [2]: binds
B1: Siglec-10 expressed on CHO cells (CHO-Siglec-10) (receptor, UniProt Q96LC7 17-697, looked up)
chain: MDGRFWIRVQESVMVPEGLCISVPCSFSYPRQDWTGSTPAYGYWFKAVTETTKGAPVATNHQSREVEMSTRGRFQLTGDPAKGNCSLVIRDAQMQDESQYFFRVERGSYVRYNFMNDGFFLKVTALTQKPDVYIPETLEPGQPVTVICVFNWAFEECPPPSFSWTGAALSSQGTKPTTSHFSVLSFTPRPQDHNTDLTCHVDFSRKGVSAQRTVRLRVAYAPRDLVISISRDNTPALEPQPQGNVPYLEAQKGQFLRLLCAADSQPPATLSWVLQNRVLSSSHPWGPRPLGLELPGVKAGDSGRYTCRAENRLGSQQRALDLSVQYPPENLRVMVSQANRTVLENLGNGTSLPVLEGQSLCLVCVTHSSPPARLSWTQRGQVLSPSQPSDPGVLELPRVQVEHEGEFTCHARHPLGSQHVSLSLSVHYSPKLLGPSCSWEAEGLHCSCSSQASPAPSLRWWLGEELLEGNSSQDSFEVTPSSAGPWANSSLSLHGGLSSGLRLRCEAWNVHGAQSGSILQLPDKKGLISTAFSNGAFLGIGITALLFLCLALIIMKILPKRRTQTETPRPRFSRHSTILDYINVVPTAGPLAQKRNQKATPNSPRTPLPPGAPSPESKKNQKKQYQLPSFPEPKSSTQAPESQESQEELHYATLNFPGVRPRPEARMPKGTQADYAEVKFQ

binding [3]: binds
B2: Siglec-10-Ig-chimera (Fc fusion, UniProt Q96LC7 17-546, looked up, not shown: a dimerising Fc or GST)
chain: MDGRFWIRVQESVMVPEGLCISVPCSFSYPRQDWTGSTPAYGYWFKAVTETTKGAPVATNHQSREVEMSTRGRFQLTGDPAKGNCSLVIRDAQMQDESQYFFRVERGSYVRYNFMNDGFFLKVTALTQKPDVYIPETLEPGQPVTVICVFNWAFEECPPPSFSWTGAALSSQGTKPTTSHFSVLSFTPRPQDHNTDLTCHVDFSRKGVSAQRTVRLRVAYAPRDLVISISRDNTPALEPQPQGNVPYLEAQKGQFLRLLCAADSQPPATLSWVLQNRVLSSSHPWGPRPLGLELPGVKAGDSGRYTCRAENRLGSQQRALDLSVQYPPENLRVMVSQANRTVLENLGNGTSLPVLEGQSLCLVCVTHSSPPARLSWTQRGQVLSPSQPSDPGVLELPRVQVEHEGEFTCHARHPLGSQHVSLSLSVHYSPKLLGPSCSWEAEGLHCSCSSQASPAPSLRWWLGEELLEGNSSQDSFEVTPSSAGPWANSSLSLHGGLSSGLRLRCEAWNVHGAQSGSILQLPDKKGLIST
